From publication PMC11881899
Results are given in words; binding and its absence hold for the method and conditions named. Some results given as binding are weak or reduced against the parent protein; the word gives no strength.

Sequences of proteins named here, by UniProt entry; tags and fusion partners are left off.
UniProt Q8IXH7: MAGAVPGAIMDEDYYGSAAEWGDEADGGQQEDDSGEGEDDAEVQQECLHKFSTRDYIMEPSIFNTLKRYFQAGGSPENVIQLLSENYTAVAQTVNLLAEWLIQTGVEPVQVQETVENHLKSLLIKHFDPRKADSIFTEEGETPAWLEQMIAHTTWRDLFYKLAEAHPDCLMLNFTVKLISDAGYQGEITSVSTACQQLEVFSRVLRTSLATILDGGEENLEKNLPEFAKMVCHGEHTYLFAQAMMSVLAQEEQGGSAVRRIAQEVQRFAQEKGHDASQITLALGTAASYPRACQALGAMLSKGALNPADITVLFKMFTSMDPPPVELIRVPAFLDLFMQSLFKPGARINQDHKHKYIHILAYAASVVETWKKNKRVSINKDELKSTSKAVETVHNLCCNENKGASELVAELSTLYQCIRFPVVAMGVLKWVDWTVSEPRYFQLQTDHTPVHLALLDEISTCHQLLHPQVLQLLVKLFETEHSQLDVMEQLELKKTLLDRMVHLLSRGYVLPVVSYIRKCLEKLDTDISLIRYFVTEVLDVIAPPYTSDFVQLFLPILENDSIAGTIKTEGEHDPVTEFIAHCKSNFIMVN

Target: human NELF-C, C-terminally His6-tagged (human) (UniProt Q8IXH7)
Assay: mass photometry; wild-type NELF and the 3E mutant diluted to 10 nM with buffer D (20 mM Tris-HCl pH 8.0, 150 mM NaCl, 1 mM DTT); Refeyn TwoMP; both purified

human NELF-B (from UniProt Q8WX92 49-628)
binding: binds
